Experimental data: PubChem BioAssay AID1159578 (Peter MacCallum Cancer Centre, 2015)

Purpose: 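Knock-downs that alter how fast lymphatic endothelial cells migrate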 (primary screen)
System: human lymphatic endothelial cells
Knock-down reagent: siRNA pool against human genes, 40 nM
Time to read-out: 48 h after transfection
Read-out: 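High-content imaging of dye-stained cells in a scratch assay measures filled wound area and nuclei per well; duplicate means given as ratio to mock and robust z-score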
Direction: migration robust z-score: higher = faster migration into the scratch; migration relative to mock: higher = more scratch area covered than mock; nuclei per well: higher = more cells in the well
Hit rule: 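Migration changed when robust z exceeds 2 or falls below -2 and mean nuclei number is at least 3300; otherwise not called changed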
Meaning of the calls: active = migration changed; inactive = no migration change, or too few cells
This is an unselected part of about 18,000 reagents. Over the whole deposit, about 1,030 (5.7%) were called active. 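Inactive calls also include pools with fewer than 3300 nuclei, whose migration was not assessed.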 The raw values are shown without normalisation. Unmarked entries are inactive. Reagents against one gene are numbered here.

gene symbol	reagent no.	migration robust z-score	migration class with cell-count check	migration relative to mock	nuclei per well, duplicate mean
FMOD (fibromodulin)	1	-0.18	migration z between -2 and 2; enough cells	0.84	5423
PPT2 (palmitoyl-protein thioesterase 2)	1	-0.65	migration z between -2 and 2; enough cells	0.68	5500
FRY (FRY microtubule binding protein)	1	-0.25	migration z between -2 and 2; enough cells	0.82	6226
CNDP2 (carnosine dipeptidase 2)	1	-0.18	migration z between -2 and 2; enough cells	0.77	4706
PRORP (protein only RNase P catalytic subunit)	1	-0.3	migration z between -2 and 2; enough cells	0.8	5497
ZAN (zonadhesin)	1	0.36	migration z between -2 and 2; enough cells	0.98	5892
PARP14 (poly(ADP-ribose) polymerase family member 14)	1	0.96	migration z between -2 and 2; enough cells	0.99	6208
TAF7 (TATA-box binding protein associated factor 7)	1	1.27	migration z between -2 and 2; enough cells	1.05	5190
PAPOLB (poly(A) polymerase beta)	1	0.57	migration z between -2 and 2; enough cells	0.92	5390
TRIB1 (tribbles pseudokinase 1)	1	-1.17	under 3300 nuclei; migration not judged	0.58	3016
GPR34 (G protein-coupled receptor 34)	1	0.7	migration z between -2 and 2; enough cells	0.94	4461
GON7 (GON7 subunit of KEOPS complex)	1	-0.2	migration z between -2 and 2; enough cells	0.84	5752
ZPBP2 (zona pellucida binding protein 2)	1	-0.25	migration z between -2 and 2; enough cells	0.82	5294
CDA (cytidine deaminase)	1	-0.18	migration z between -2 and 2; enough cells	0.77	5442
CCKBR (cholecystokinin B receptor)	1	0.42	migration z between -2 and 2; enough cells	0.88	6003
RBMS1 (RNA binding motif single stranded interacting protein 1)	1	-1.22	migration z between -2 and 2; enough cells	0.57	5102
SUN3 (Sad1 and UNC84 domain containing 3)	1	-2.18 (active)	migration z below -2; enough cells	0.32	6320
RRM2 (ribonucleotide reductase regulatory subunit M2)	1	-2.91	under 3300 nuclei; migration not judged	0.25	1930
RRM2 (ribonucleotide reductase regulatory subunit M2)	2	-0.63	migration z between -2 and 2; enough cells	0.72	4513
OTULINL (OTU deubiquitinase with linear linkage specificity like)	1	-0.06	migration z between -2 and 2; enough cells	0.87	5540
DACH2 (dachshund family transcription factor 2)	1	-0.15	migration z between -2 and 2; enough cells	0.84	5852
RALGAPA2 (Ral GTPase activating protein catalytic subunit alpha 2)	1	0.69	migration z between -2 and 2; enough cells	1.06	7022
GPD1 (glycerol-3-phosphate dehydrogenase 1)	1	-0.98	migration z between -2 and 2; enough cells	0.62	5384
KATNAL1 (katanin catalytic subunit A1 like 1)	1	0.02	migration z between -2 and 2; enough cells	0.81	6189
DNAJC5 (DnaJ heat shock protein family (Hsp40) member C5)	1	1.24	migration z between -2 and 2; enough cells	1.21	5000
SPTB (spectrin beta, erythrocytic)	1	-0.31	migration z between -2 and 2; enough cells	0.8	6253
HYCC1 (hyccin PI4KA lipid kinase complex subunit 1)	1	0.52	migration z between -2 and 2; enough cells	1.01	7191
HECA (HECA ribonucleoprotein granule regulator)	1	0.32	migration z between -2 and 2; enough cells	0.97	7178
KGD4 (alpha-ketoglutarate dehydrogenase subunit 4)	1	0.46	migration z between -2 and 2; enough cells	1	6626
BICD2 (BICD cargo adaptor 2)	1	0.37	migration z between -2 and 2; enough cells	0.99	6158
LGI2 (leucine rich repeat LGI family member 2)	1	1.54	migration z between -2 and 2; enough cells	1.29	6284
GIMAP6 (GTPase, IMAP family member 6)	1	0.54	migration z between -2 and 2; enough cells	1.02	6303
SLC5A10	1	-0.66	migration z between -2 and 2; enough cells	0.72	6924
OR52N1 (olfactory receptor family 52 subfamily N member 1)	1	1.4	migration z between -2 and 2; enough cells	1.25	6010
VPS37D (VPS37D subunit of ESCRT-I)	1	-0.81	migration z between -2 and 2; enough cells	0.68	7610
NPL (N-acetylneuraminate pyruvate lyase)	1	-0.83	migration z between -2 and 2; enough cells	0.64	5193
RTP5 (receptor transporter protein 5 (putative))	1	1.54	migration z between -2 and 2; enough cells	1.29	5186
FBXO11 (F-box protein 11)	1	-0.39	migration z between -2 and 2; enough cells	0.73	5782
GAB1 (GRB2 associated binding protein 1)	1	-0.14	migration z between -2 and 2; enough cells	0.85	3918
